Among the data in paper PMC10949598 are binding values, retold here.

Chains of the proteins cited; added tags and fusions are not shown. Lines headed by an entry give the natural chain unless they say otherwise; changes in a name come on top.
UniProt A0PK00: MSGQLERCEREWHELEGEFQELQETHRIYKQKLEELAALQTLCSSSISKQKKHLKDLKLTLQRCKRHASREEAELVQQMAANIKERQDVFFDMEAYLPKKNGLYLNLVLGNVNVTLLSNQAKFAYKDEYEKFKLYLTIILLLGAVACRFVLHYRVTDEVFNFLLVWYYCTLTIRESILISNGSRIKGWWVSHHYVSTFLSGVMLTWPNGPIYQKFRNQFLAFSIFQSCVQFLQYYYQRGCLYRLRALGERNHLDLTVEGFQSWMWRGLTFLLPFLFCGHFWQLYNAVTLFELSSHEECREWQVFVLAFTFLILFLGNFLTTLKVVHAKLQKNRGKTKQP
UniProt P35579: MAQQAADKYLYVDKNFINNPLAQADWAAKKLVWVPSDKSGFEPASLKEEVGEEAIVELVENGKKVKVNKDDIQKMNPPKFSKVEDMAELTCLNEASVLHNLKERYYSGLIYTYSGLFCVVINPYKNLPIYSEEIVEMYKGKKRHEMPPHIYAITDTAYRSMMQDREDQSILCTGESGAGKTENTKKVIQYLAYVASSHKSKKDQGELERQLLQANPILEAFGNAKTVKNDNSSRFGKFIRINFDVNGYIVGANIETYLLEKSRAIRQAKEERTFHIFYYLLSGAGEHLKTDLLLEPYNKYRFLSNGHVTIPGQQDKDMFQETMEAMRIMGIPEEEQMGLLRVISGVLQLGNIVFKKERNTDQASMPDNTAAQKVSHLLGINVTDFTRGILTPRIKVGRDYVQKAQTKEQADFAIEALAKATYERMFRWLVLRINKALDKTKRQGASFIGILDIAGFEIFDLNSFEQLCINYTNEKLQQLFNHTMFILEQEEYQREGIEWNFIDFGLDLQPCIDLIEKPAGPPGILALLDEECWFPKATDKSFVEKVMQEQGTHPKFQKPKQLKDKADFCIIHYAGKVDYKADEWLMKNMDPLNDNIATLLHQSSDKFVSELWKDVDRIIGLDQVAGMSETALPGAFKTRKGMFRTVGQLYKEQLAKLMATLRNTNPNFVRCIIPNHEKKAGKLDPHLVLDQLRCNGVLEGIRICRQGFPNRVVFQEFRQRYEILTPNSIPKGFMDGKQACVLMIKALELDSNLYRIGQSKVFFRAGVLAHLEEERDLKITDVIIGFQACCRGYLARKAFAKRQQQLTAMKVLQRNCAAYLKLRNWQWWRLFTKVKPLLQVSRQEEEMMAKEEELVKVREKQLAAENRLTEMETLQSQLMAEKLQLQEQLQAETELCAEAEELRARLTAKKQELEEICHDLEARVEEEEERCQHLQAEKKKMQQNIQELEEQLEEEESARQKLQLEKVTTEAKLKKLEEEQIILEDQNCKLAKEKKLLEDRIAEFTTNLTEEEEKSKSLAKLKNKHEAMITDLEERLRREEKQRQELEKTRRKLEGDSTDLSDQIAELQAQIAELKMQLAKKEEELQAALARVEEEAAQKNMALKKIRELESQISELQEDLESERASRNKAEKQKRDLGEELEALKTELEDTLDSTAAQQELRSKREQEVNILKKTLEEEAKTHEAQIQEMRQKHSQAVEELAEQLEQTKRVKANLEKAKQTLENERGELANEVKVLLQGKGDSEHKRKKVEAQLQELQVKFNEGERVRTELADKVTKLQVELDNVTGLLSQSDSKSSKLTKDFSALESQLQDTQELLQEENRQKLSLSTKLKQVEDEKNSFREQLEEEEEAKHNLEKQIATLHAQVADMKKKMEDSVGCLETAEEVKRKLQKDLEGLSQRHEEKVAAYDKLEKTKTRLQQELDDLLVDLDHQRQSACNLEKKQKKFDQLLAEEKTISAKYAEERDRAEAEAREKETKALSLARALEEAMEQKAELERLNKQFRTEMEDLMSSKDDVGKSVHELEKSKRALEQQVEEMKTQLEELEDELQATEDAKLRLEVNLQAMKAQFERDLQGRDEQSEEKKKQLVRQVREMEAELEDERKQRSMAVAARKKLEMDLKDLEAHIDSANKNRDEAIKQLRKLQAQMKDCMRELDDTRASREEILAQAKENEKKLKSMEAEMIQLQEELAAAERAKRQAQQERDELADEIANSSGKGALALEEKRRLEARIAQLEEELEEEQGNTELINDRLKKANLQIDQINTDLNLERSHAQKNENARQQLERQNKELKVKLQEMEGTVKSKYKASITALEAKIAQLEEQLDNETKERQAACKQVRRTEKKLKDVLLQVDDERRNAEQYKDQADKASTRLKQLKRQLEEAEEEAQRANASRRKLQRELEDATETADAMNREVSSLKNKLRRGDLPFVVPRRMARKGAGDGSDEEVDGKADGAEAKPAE

The target of the test is TMEM120B protein coupled to a GST label (human) (UniProt A0PK00). As to the kind of experiment: pull-down; GST-TMEM120B on glutathione sepharose magnetic beads, incubated overnight at 4 °C with SK-BR-3 lysate transfected with Myc-MYH9; western blotting and Coomassie staining; only the target purified. In general terms: A western blot detects proteins with antibodies after separation by electrophoresis.

These are yes or no findings as the source states them, for the method shown. In cells and extracts the contact can be indirect. Binding can be weak; no strength is given.

On to Myc-MYH9 (from UniProt P35579 1-1960), for which the binding entry is recorded as “binds”.
